Values quoted from earlier work, collected in US9873704B2, “Heterocyclic compounds and their uses” (Amgen Inc., priority 2009, dated 2018).
For at least one compound, name, drawing or mass did not settle the structure.

Experiments:
neutrophil [1] = details: cited from earlier work
neutrophil [2] = details: cited from earlier work; remark: listed apart in the source

For COC[C@H]1OC(=O)c2coc3c2[C@@]1(C)C1=C(C3=O)[C@@H]2CCC(=O)[C@@]2(C)C[C@H]1OC(C)=O [wortmannin], the neutrophil migration (neutrophil [1]) is listed as “block” and the superoxide release (neutrophil [2]) is listed as “block”.
In the case of O=c1cc(N2CCOCC2)oc2c(-c3ccccc3)cccc12 [LY294002], the neutrophil migration (neutrophil [1]) is listed as “block” and the superoxide release (neutrophil [2]) is listed as “block”.
